# The supplement of paper PMC12542422
# Counter-ions that a name gives are not always drawn. ± gives the standard deviation of the averaged measurements. This is one part of the list. These are raw signals, not scaled to a control.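 Across three biological replicates, HeLa cells were imaged for ribosome assembly using ENP1 staining (export block present or absent) or inducible tagged ribosomal protein reporters. Machine learning classified each cell's signal localization relative to DMSO controls. Hits exceeded the DMSO false-positive mean by five standard deviations and were then visually confirmed.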
# Tested on: HeLa K (ENP1 immunofluorescence, +LMB)
# Assay: fraction of cells with nucleolar or nucleolar/nucleoplasmic ENP1 signal (MainHitrate); higher = more cells with nucleolar/nuclear readout signal (for ENP1 -LMB: less RNAPI inhibition; for +LMB ENP1 and RP reporters: stronger nuclear/nucleolar retention, i.e. ribosome biogenesis defect)
# Conditions: concentration: 1 µM; treatment time: 6 h; ENP1 +LMB; leptomycin B: 20 nM, last 1.5 h
row,Structure (SMILES),fraction
1,CC[C@H](C)C(=O)O[C@H]1C[C@H](O)C=C2C=C[C@H](C)[C@H](CC[C@@H](O)C[C@@H](O)CC(=O)O)[C@H]21 [Pravastatin sodium],0.145 ± 0.22
2,"CO[C@H]1/C=C/O[C@@]2(C)Oc3c(C)c(O)c4c(O)c(c(/C=N/N5CCN(C)CC5)c(O)c4c3C2=O)NC(=O)/C(C)=C\C=C\[C@H](C)[C@H](O)[C@@H](C)[C@@H](O)[C@@H](C)[C@H](OC(C)=O)[C@@H]1C [Rifampin (Rifadin, Rimactane)]",0.0863 ± 0.091
3,CC(=O)O[C@]1(C(C)=O)CC[C@H]2[C@@H]3C[C@H](C)C4=CC(=O)C=C[C@]4(C)[C@@]3(F)[C@@H](O)C[C@@]21C [Fluorometholone Acetate],0.0888 ± 0.13
4,CCCCCCCCCCCCCCCCCCCCCCO [Docosanol (Abreva)],0.165 ± 0.22
5,O=c1[nH]c(=O)n(C2CCCO2)cc1F (stereo not given) [Ftorafur],0.0892 ± 0.087
6,CN(C)CCCOc1nn(Cc2ccccc2)c2ccccc12 [Benzydamine Hydrochloride],0.0631 ± 0.083
7,O=C(Nc1c(Cl)cncc1Cl)c1ccc(OC(F)F)c(OCC2CC2)c1 [Roflumilast (Daxas)],0.129 ± 0.18
8,CCc1c(Cl)c(O)c(Cl)c(O)c1C(=O)O[C@H]1[C@H](O)[C@H](OC)[C@H](OC/C2=C\C=C\C[C@H](O)/C(C)=C/[C@H](CC)[C@@H](O[C@@H]3OC(C)(C)[C@@H](OC(=O)C(C)C)[C@H](O)[C@@H]3O)/C(C)=C/C(C)=C/C[C@@H]([C@@H](C)O)OC2=O)O[C@@H]1C [Fidaxomicin],0.121 ± 0.19
9,COc1cc2nc(N3CCN(C(=O)C4CCCO4)CC3)nc(N)c2cc1OC (stereo not given) [Terazosin HCl (Hytrin)],0.113 ± 0.16
10,C=CCc1cc(OC)c(O)c(C(=O)NCCO)c1 [Alibendol],0.117 ± 0.17
11,CC(=O)N1CCN(c2ccc(OCC3COC(Cn4ccnc4)(c4ccc(Cl)cc4Cl)O3)cc2)CC1 (stereo not given) [Ketoconazole],0.0862 ± 0.076
12,N#C[C@@H]1CCCN1C(=O)CNC12CC3CC(CC(O)(C3)C1)C2 [Vildagliptin (LAF-237)],0.114 ± 0.14
13,O=C(O)C1(C(=O)O)CCC1.[NH2-].[NH2-].[Pt+2] [Carboplatin],0.1 ± 0.1
14,Cc1cn([C@H]2C[C@H](N=[N+]=[N-])[C@@H](CO)O2)c(=O)[nH]c1=O [Zidovudine (Retrovir)],0.0258 ± 0.023
15,O=P(O)(O)C(O)(Cc1cccnc1)P(=O)(O)O [Risedronate sodium],0.108 ± 0.12
16,CC(C)Cc1ccc(C(C)C(=O)O)cc1 (stereo not given) [Ibuprofen (Advil)],0.432 ± 0.51
17,CN(C)CCN1C(=O)c2ccccc2N(C)c2ccccc21 [Dibenzepine HCl],0.051 ± 0.05
18,CN[C@@H]1[C@H](O)[C@H](NC)[C@H]2O[C@@]3(O)C(=O)C[C@@H](C)O[C@H]3O[C@@H]2[C@H]1O [Spectinomycin  hydrochloride],0.148 ± 0.22
19,CCCN(CCC)CCc1cccc2c1CC(=O)N2 [Ropinirole HCl],0.0904 ± 0.13
20,COc1ccc(-c2ccc3cc(C(=O)O)ccc3c2)cc1C12CC3CC(CC(C3)C1)C2 [Adapalene],0.113 ± 0.14
21,Nc1ccn([C@H]2CC[C@@H](CO)O2)c(=O)n1 [Zalcitabine],0.0969 ± 0.13
22,O=C1CC[C@@H](C(=O)N2CSC[C@H]2C(=O)O)N1 [Pidotimod],0.122 ± 0.16
23,COC(=O)[C@H](Cc1ccccc1)NC(=O)[C@@H](N)CC(=O)O [Aspartame],0.125 ± 0.19
24,CNCCc1ccccn1 [Betahistine 2HCl],0.0925 ± 0.14
25,Cc1onc(-c2ccccc2Cl)c1C(=O)N[C@@H]1C(=O)N2[C@@H]1SC(C)(C)[C@@H]2C(=O)O [Cloxacillin sodium (Cloxacap)],0.0902 ± 0.12
26,O=C(Nc1ccc([N+](=O)[O-])cc1Cl)c1cc(Cl)ccc1O [Niclosamide (Niclocide)],0.151 ± 0.24
27,CO[C@@H]1[C@@H](OC(N)=O)[C@@H](O)[C@H](Oc2ccc3c(O)c(NC(=O)c4ccc(O)c(CC=C(C)C)c4)c(=O)oc3c2C)OC1(C)C [Novobiocin sodium (Albamycin)],0.0961 ± 0.13
28,O=C(O)/C=C/c1ccc(Cn2ccnc2)cc1 [Ozagrel],0.106 ± 0.16
29,CC(C)CN(C[C@@H](O)[C@H](Cc1ccccc1)NC(=O)O[C@H]1CCOC1)S(=O)(=O)c1ccc(N)cc1 [Amprenavir (Agenerase)],0.096 ± 0.093
30,CNC(=O)c1cc(Oc2ccc(NC(=O)Nc3ccc(Cl)c(C(F)(F)F)c3)cc2)ccn1 [Sorafenib (Nexavar)],0.0474 ± 0.019

# In a second layout: 7 of the compounds above
row | Structure (SMILES) | fraction
1 | CC[C@H](C)C(=O)O[C@H]1C[C@H](O)C=C2C=C[C@H](C)[C@H](CC[C@@H](O)C[C@@H](O)CC(=O)O)[C@H]21 [Pravastatin sodium] | 0.145 ± 0.22
9 | COc1cc2nc(N3CCN(C(=O)C4CCCO4)CC3)nc(N)c2cc1OC (stereo not given) [Terazosin HCl (Hytrin)] | 0.113 ± 0.16
14 | Cc1cn([C@H]2C[C@H](N=[N+]=[N-])[C@@H](CO)O2)c(=O)[nH]c1=O [Zidovudine (Retrovir)] | 0.0258 ± 0.023
16 | CC(C)Cc1ccc(C(C)C(=O)O)cc1 (stereo not given) [Ibuprofen (Advil)] | 0.432 ± 0.51
17 | CN(C)CCN1C(=O)c2ccccc2N(C)c2ccccc21 [Dibenzepine HCl] | 0.051 ± 0.05
28 | O=C(O)/C=C/c1ccc(Cn2ccnc2)cc1 [Ozagrel] | 0.106 ± 0.16
30 | CNC(=O)c1cc(Oc2ccc(NC(=O)Nc3ccc(Cl)c(C(F)(F)F)c3)cc2)ccn1 [Sorafenib (Nexavar)] | 0.0474 ± 0.019
